Experimental data: the supplement of paper PMC12067093, “Discovery and optimisation of a covalent ligand for TRIM25 and its application to targeted protein ubiquitination” (Chemical Science, 2025)
The list shows a part of the results.

The chains behind the UniProt entries cited, without tags or fusion partners. Where a name states a change or a piece, a line headed by the entry shows the natural chain unless it says otherwise.
UniProt Q9Y6M1: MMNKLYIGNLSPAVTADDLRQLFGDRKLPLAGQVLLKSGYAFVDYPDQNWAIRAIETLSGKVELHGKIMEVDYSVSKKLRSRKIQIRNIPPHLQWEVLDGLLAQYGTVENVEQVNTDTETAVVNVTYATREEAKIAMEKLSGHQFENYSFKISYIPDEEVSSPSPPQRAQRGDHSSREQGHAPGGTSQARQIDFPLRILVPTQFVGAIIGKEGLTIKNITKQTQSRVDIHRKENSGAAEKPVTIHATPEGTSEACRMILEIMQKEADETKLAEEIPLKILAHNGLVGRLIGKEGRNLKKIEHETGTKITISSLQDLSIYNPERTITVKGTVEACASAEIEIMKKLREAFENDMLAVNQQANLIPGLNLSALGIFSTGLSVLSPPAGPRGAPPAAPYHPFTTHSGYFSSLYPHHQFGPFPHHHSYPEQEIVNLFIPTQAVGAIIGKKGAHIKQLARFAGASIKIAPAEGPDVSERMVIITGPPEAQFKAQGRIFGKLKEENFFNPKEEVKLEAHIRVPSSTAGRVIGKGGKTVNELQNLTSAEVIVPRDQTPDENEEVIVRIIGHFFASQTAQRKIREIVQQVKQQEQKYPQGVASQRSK
UniProt Q9NPH3, whole entry, looked up: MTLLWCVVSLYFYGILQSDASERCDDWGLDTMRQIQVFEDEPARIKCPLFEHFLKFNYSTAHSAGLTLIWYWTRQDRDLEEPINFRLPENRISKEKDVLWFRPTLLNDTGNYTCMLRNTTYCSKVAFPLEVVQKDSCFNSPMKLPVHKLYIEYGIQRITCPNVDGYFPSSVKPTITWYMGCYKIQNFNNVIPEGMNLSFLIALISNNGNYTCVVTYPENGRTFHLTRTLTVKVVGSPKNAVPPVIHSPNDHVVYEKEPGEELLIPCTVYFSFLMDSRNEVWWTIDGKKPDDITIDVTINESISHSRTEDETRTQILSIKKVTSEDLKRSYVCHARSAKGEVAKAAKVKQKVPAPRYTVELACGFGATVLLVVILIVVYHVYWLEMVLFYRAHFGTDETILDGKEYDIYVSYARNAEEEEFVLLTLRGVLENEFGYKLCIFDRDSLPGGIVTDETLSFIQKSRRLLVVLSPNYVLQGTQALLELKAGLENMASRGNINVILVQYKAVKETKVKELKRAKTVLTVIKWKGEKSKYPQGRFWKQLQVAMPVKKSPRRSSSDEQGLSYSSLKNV
UniProt Q9P2X3: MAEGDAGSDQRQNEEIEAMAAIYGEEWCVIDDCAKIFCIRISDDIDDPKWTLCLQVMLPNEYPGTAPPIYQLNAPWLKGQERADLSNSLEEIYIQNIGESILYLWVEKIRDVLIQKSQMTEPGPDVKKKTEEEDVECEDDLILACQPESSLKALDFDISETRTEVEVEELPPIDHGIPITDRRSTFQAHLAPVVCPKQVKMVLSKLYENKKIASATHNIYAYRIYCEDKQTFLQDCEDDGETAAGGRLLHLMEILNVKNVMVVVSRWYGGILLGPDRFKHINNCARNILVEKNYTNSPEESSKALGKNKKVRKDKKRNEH

Compound: CC1Cc2ccccc2N1C(=O)C1CCCN(C1)C(=O)CCl (mixture of isomers) [TRIM25 ligand 11 (diastereomer mixture)]
Assay: probe-labelled cysteine peptide fold change vs DMSO (competition) (log2 fold change); higher = less target engagement (more negative = stronger competition)
Details: THP-1, incubation time: 4 h
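Note: competitive chemoproteomic profiling in live THP-1 cells with an iodoacetamide desthiobiotin (IA-DTB) probe, comparing probe-labelled peptide intensities in compound-treated cells against DMSO-treated controls.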

Target | probe-labelled cysteine peptide fold change (10 µM) | probe-labelled cysteine peptide fold change (50 µM)
IGF2BP2_Q9Y6M1_255_ENSGAAEKPVTIHATPEGTSEACR (UniProt Q9Y6M1) | -0.0717 | -0.178
IL1RAP_Q9NPH3_47_CPLFEHFLK (UniProt Q9NPH3) | 0.135 | 0.196
IMPACT_Q9P2X3_195_STFQAHLAPVVCPK (UniProt Q9P2X3) | -0.0535 | -0.381
